# Values quoted from earlier work, collected in US20100028276A1, “SUNSCREEN COMPOSITIONS” (priority 2007, published 2010).
# At least one structure is not confirmed: it was looked up by name or label, or the drawing left a doubt.
# Experiments:
# [1] = uterine wet weight, cell height, cell proliferation assays
# [2] = test system: cancer cells
compound,measurement,setting,value
CCCCC(CC)COC(=O)C=Cc1ccc(OC)cc1 (centres unmarked) [octyl methoxycinnamate],estrogenicity,[1],highly estrogenic
same,effect on growth of cancer cells,[2],made cancer cells grow more rapidly
